Results taken from paper PMC4924758.
For at least one entry, the source does not settle the construct or the ends of the probe. The comparison behind a weaker result is the experiment's own reference, which may not be listed here.

Protein sequences, listed by entry. Tags and fused reporters are not part of them.
UniProt Q04206, whole entry: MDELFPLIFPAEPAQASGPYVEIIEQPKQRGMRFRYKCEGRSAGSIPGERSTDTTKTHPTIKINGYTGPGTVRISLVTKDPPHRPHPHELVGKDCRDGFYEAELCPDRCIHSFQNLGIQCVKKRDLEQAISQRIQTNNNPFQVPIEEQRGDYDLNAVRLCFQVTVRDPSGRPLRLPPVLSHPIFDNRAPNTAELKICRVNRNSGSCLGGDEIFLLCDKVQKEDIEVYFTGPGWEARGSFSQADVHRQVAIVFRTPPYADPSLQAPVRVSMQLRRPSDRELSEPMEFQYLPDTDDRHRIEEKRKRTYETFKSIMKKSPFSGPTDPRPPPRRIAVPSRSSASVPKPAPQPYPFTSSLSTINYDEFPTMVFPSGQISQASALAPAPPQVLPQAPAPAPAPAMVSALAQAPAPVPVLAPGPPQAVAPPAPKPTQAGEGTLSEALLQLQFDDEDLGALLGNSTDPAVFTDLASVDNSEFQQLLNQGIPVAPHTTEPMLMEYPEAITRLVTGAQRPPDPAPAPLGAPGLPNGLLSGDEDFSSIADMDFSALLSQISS

Target: NFκB p65 (recombinant, Active Motif 31102) (UniProt Q04206)
Experiment: EMSA
Settings: p65 1 µM, oligo 0.15 µM; EMSA: 5x binding buffer (750 mM KCl, 0.5 mM DTT, 0.5 mM EDTA, 50 mM Tris pH 7.4; 2 µl per reaction, i.e. about 150 mM KCl if 10 µl), 40 min, temperature not stated; recombinant protein; label: none (unlabeled, SYBR Green stain)

“CGACATGATACACTAAGAAAAAATATTCTGCAGACACTGC (double strand) [MUC16 promoter NFκB mutated oligo]”: binds more weakly.
